According to PMC6347451:
These are yes or no findings as the source states them, for the method shown. Binding seen in cells or lysates may run through a third protein. Some entries that bind do so weakly or less than the wild type. Sequences can lack the tags named with a protein.

Protein sequences, listed by entry. Tags and fused reporters are not part of them. Residues count along the entry.
UniProt Q9BPX6, residues 34-476: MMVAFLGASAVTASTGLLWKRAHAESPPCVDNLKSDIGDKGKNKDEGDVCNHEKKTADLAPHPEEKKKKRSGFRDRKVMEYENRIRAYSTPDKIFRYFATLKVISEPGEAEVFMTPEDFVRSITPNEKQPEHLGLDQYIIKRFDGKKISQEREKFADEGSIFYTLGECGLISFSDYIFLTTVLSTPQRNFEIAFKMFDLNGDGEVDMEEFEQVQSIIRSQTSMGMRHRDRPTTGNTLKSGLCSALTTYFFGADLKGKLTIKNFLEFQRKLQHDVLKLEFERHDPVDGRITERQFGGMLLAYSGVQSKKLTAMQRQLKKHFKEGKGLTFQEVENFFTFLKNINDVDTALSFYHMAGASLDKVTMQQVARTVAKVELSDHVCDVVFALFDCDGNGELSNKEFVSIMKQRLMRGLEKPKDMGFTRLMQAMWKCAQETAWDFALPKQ

B1: 1D4-tagged MCU homologue from Drosophila melanogaster (protein, UniProt Q8IQ70 54-366)
chain: ASTAEDGETDKHKKPTTGEDIYVEYVNGMPHMTVRLPSRNELCQFALKPISHNVGDLLAMLRAEDRGIDRAAVINKHGVRIASSCTIESLLDDSFSIQINNRTLDVNPPKRDKVTLESMDKVGDVRKVIAQLYEAFNVGEYQLEKSNQLAKELETLRYELEPLEEKKLELSKKAARRTNFMTWMGLGLMSVQFGILARLTWWEYSWDIMEPVTYFVTYGTTMAMYAYYCVTKREYMMEDVKNREFSLSLYRNAKKVQFDVEHYNELKRKSAELEYNLRRINDPLNMQLPSHLVRTQENTPPTLTEEKAERKYT
B2: 1D4-tagged MCU homologue from Caenorhabditis elegans (protein, UniProt Q21121 23-333)
chain: TLWNRQQIAFSTTTASSSTSPIQESSSPLSIRFEYGLPLLDVPLPSRNEPCQFTMRPLSDTIGSLCEFLRQEDRGIDYVAVYGTNGVKLATCTSIEHLLQFGSFRLRLNDKFFDVTVPKTGTMPYDSDKLRQLDDLRATVASLHAALCVDEYKLSREKKLLLQLENAETLLAPLHDAKRKIEQECEAHTDRVMWAGFAAMGVQTGLFARLTWWEYSWDIMEPVTYFATYSTVCATFGYYLYTQQSFEYPSARERVYTKQFYRRAQKQNFDIEKYNRLVTEVDELRNQLKRMRDPLFQHLPVSYLSNLEAEK
B3: 1D4-tagged MCU homologue from Dictyostelium discoideum (protein, UniProt Q54LT0 29-275)
chain: EGELKTILGQAKVSKLQEKLKLDPRSKITFNDFKGIAKEVGIEEKEINSVSNALAQSGSIIYLPNSLNENLKTSVFTKPAHIYQSLEHILDIENKGVGLNKLIESKKSEINSLRQKIQPLEEKKQVIDRKAHRRATAIIWTGLGYCFAQAAILARLTWWDLSWDIIEPVSYFLTFGSVLIGYTYFTMTKTEFTYEALNHRLFSKRQDKLFKRNNFPKEDYENLVQAIDKKEKELKELELATKYDHTH

Biological target: FLAG-tagged WT human MICU1 (human) (UniProt Q9BPX6)
Experiment: co-IP; FLAG-tagged MICU1 (or MICU2) held on FLAG-affinity resin pulls down co-expressed 1D4-tagged MCU; MCU/EMRE-KO HEK 293 cells; 4 °C; 100 mM NaCl, 20 mM Tris, 1 mM EGTA, 5 mM DDM, pH 7.5; 30 min batch binding; Western with anti-FLAG and anti-1D4; in Figure 5A with 50, 150 or 500 mM NaCl

Binder | binding
B1 | binds
B2 | binds
B3 | binds
